Source: PubChem BioAssay AID528 (NMMLSC, 2006)
The whole screen tested about 24,000 compounds, of which fewer than 10 were called active. Inconclusive results, whose numbers are uncertain, are shown with a selection of clear calls.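 Rule for the calls: active = fluorescent ligand binding to cells raised by more than 40% of the manganese-induced maximum; inconclusive = compound's own fluorescence above 85% of the ligand control signal; inactive = the rest.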

Chains of the proteins cited; added tags and fusions are not shown.
UniProt P13612, whole entry, looked up: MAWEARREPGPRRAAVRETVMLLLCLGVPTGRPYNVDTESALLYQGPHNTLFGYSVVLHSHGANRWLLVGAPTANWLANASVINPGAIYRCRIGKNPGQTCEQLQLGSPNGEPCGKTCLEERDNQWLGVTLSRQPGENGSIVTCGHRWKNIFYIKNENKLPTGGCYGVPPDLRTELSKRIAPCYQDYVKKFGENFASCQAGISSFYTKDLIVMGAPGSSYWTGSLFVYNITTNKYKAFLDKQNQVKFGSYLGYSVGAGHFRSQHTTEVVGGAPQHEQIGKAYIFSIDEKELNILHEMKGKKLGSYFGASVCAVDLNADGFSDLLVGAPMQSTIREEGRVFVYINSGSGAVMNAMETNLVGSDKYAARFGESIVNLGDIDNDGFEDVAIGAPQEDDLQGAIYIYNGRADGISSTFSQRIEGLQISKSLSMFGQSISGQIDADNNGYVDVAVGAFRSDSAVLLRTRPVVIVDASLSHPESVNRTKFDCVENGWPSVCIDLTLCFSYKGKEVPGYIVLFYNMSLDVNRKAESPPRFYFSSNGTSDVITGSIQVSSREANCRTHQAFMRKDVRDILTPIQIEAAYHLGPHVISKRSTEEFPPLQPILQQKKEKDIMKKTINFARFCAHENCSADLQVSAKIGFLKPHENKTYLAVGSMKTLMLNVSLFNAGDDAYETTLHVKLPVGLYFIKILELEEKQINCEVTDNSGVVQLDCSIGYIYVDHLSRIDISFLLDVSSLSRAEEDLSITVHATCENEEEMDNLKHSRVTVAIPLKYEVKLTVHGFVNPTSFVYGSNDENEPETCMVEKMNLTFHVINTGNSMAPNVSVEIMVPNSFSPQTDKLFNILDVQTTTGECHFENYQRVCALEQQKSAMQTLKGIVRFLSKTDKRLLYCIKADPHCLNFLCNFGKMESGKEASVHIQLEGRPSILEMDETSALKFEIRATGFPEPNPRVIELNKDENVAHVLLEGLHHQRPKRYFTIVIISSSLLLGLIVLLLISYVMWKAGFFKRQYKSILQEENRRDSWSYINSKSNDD

Each compound was assayed against Integrin alpha-4 (Homo sapiens) (UniProt P13612) (assay: enhancers of LDV-FITC binding to VLA-4 integrin, primary screen, Jurkat cells, flow cytometry (AID 528;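 for activation: 0% = ligand binding without compound and 100% = manganese-stimulated maximal binding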)). Conditions: stronger effect = higher value, screened at 10 µM (by protocol).

| SMILES | activation |
| --- | --- |
| Cc1ccccc1-c1nc(CN2CCC(C(=O)NCCCN3CC(C)CC(C)C3)CC2)c(C)o1 (configuration not stated) | inactive: 3% |
| Cc1ccc2c(C)nc(NC3=NCN(C(C)C)CN3)nc2c1 | inactive: 7% |
| Cn1c(=O)cc(SCC(=O)NCC2CCCO2)c2ccccc21 (configuration not stated) | inactive: -3% |
| CCN1CCN(C(=O)c2ccc3c(=O)n(C4CCCC4)c(=S)[nH]c3c2)CC1 | inconclusive |
| Cc1c(NC(=O)CSc2nnc3sc4ccccc4n23)c(=O)n(-c2ccccc2)n1C | inactive: 0.5% |
| COc1ccc(N2C(=O)C3CCCN3C2c2cccc(C)c2)cc1 (configuration not stated) | inconclusive |
| COc1ccc(CCNC(=O)CSC2=Nc3ccccc3C3=NC(C(C)C)C(=O)N23)cc1OC (configuration not stated) | inconclusive |
| COc1cccc(-c2cc3nc4c(c(N5CCC6(CC5)OCCO6)n3n2)CCCC4)c1 | inconclusive |
| Cc1nc2sc(C(c3ccccc3)N3CCOCC3)c(O)n2n1 (configuration not stated) | inconclusive |
| COc1cccc(Oc2ccc(N)cc2)c1 | inactive: 8% |
| CCOC(=O)c1cc2c(=O)n3ccccc3nc2n(Cc2ccccc2)c1=N | inconclusive |
| COc1ccc(OC)c(C2C(C(=O)Nc3cccnc3)=C(C)NC3=C2C(=O)CCC3)c1 (configuration not stated) | inactive: 9.5% |
| Cc1noc(/C=C/NCc2cccnc2)c1S(=O)(=O)N(C)CC(=O)N1CCc2ccccc21 | inconclusive |
| CCc1cc(=O)oc2cc3oc(C)c(C)c3cc12 | inconclusive |
| O=C(C1CCCN(S(=O)(=O)c2cccc3nonc23)C1)N1CCC(Cc2ccccc2)CC1 (configuration not stated) | inactive: -8.3% |
| Cc1cc(SCC(N)=O)nc(SCC(=O)c2ccccc2)n1 | inactive: 5.5% |
| COc1cccc(C2C3=C(CCCC3=O)Nc3nc(-c4cc(OC)c(OC)c(OC)c4)nn32)c1 (configuration not stated) | inconclusive |
| CCN1CCN(Cc2ccc(NC(=O)Nc3cccs3)cc2)CC1 | inactive: 2% |
| CC1CC(C)CN(Cc2nc3c(c(=O)n(C)c(=O)n3C)n2Cc2ccccc2Cl)C1 (configuration not stated) | inactive: -4% |
| Cn1cccc1Cc1nnc(SCC(=O)NCc2ccccc2Cl)n1-c1ccc(F)cc1 | inconclusive |
| O=C(C1CCN(S(=O)(=O)c2cccc3cccnc23)CC1)N1CCN(C2CCCC2)CC1 | inconclusive |
| Cc1oc2cc(O)ccc2c(=O)c1Oc1ccccc1Br | inconclusive |
| Cc1oc(-c2ccccc2F)nc1CN1CCC(C(=O)NC2CCCCCCC2)CC1 | inconclusive |
| Cc1cccc(N2CCN(C(=O)c3cc4c(=O)n(C)c5ccccc5c4n3C)CC2)c1C | inconclusive |
| CCSc1cc(C2C(C(=O)OC)=C(C)NC3=C2C(=O)CCC3)c(C)o1 (configuration not stated) | inactive: -1.5% |

| SMILES | activation |
| --- | --- |
| COc1ccc(CNC(=O)C2CCCN(S(=O)(=O)c3cnc[nH]3)C2)cc1 (configuration not stated) | inconclusive |
| COc1ccc(C)cc1NC(=O)C1CCCN(S(=O)(=O)c2c(C)noc2/C=C/N(C)C)C1 (configuration not stated) | inconclusive |
| Cc1ccc(C)c(-n2c(CNC(=O)c3ccco3)nnc2SCC(=O)Nc2nnc(C)s2)c1 | inactive: 4% |
| O=S(=O)(NCCOCC(F)(F)F)c1ccc2oc3ccccc3c2c1 | inactive: 1% |
| COc1ccc2nc3oc(C(=O)N4CCN(c5cccc(C(F)(F)F)c5)CC4)cc3cc2c1 | inconclusive |
| CCCSc1nnc(Cn2c(=O)sc3ccccc32)n1C | inconclusive |
| CCCCNC(=O)c1cn(C)c2ccc(S(=O)(=O)N3CCOCC3)cc2c1=O | inactive: -3% |
| O=C(Cn1cc2c(n1)CCCC2)NCCCN1CCN(Cc2ccccc2)CC1 | inconclusive |
| Cc1ccsc1C1C2=C(CCCC2=O)Nc2ncnn21 (configuration not stated) | inactive: -1% |
| Cc1cc(NC(=O)CSC2=Nc3ccccc3C3=NC(Cc4ccccc4)C(=O)N23)n[nH]1 (configuration not stated) | inconclusive |
| COc1cc(OC)c(NC(=O)CCNC(=O)Cn2cnc3ccccc3c2=O)cc1Cl | inconclusive |
| CCOCCCNC(=O)c1cc(C)nn1-c1ccccc1 | inconclusive |
| Cc1ccc(C)c(N2CCN(S(=O)(=O)c3c(C)noc3/C=C/N(C)C)CC2)c1 | inactive: -3% |
| Cc1ccc(C(=O)C2COC(=O)C2)cc1 (configuration not stated) | inactive: 5% |
| COc1ccc(CCN2C(=O)C3C4C=CC(C4)C3C2=O)cc1OC (configuration not stated) | inactive: 2.5% |
| Cc1ccc2c(c1C)NC(C)CC2C (configuration not stated) | inconclusive |
| CCOC(=O)N1CCN(C(=O)c2ccc3c(SCC(=O)O)c4c(nc3c2)CCC4)CC1 | inactive: 13% |
| Cc1ccc(NC(=O)CCn2c(=O)oc3ccccc32)c(C)c1 | inconclusive |
| CC(C)CC1N=C2c3ccccc3N=C(SCc3cc(=O)n4ccccc4n3)N2C1=O (configuration not stated) | inconclusive |
| CCN(CC)S(=O)(=O)c1ccc2oc(C(=O)N3CCCCCC3)c(C)c2c1 | inconclusive |
| Cc1ccc(C)c(-n2c(CNC(=O)c3ccco3)nnc2SCC(=O)N2CCc3ccccc32)c1 | inactive: 0% |
| COc1ccc(-c2nnc(SCC(=O)NC(=O)NCc3ccco3)o2)cc1 | inactive: 15% |
| CCCS(=O)(=O)N1CCCC(C(=O)NCCc2ccc(OC)c(OC)c2)C1 (configuration not stated) | inactive: 3% |
| COc1ccccc1-c1nnc(SCC(=O)N2CCOCC2)o1 | inconclusive |
| c1ccc(-c2noc(CSc3nnnn3C3CCCCC3)n2)cc1 | inconclusive |

Given tab-delimited: part of the list above
SMILES	activation
COc1ccc(CNC(=O)C2CCCN(S(=O)(=O)c3cnc[nH]3)C2)cc1 (configuration not stated)	inconclusive
Cc1ccsc1C1C2=C(CCCC2=O)Nc2ncnn21 (configuration not stated)	inactive: -1%
Cc1ccc2c(c1C)NC(C)CC2C (configuration not stated)	inconclusive
CCCS(=O)(=O)N1CCCC(C(=O)NCCc2ccc(OC)c(OC)c2)C1 (configuration not stated)	inactive: 3%
c1ccc(-c2noc(CSc3nnnn3C3CCCCC3)n2)cc1	inconclusive

The results go on:

| SMILES | activation |
| --- | --- |
| CC(C)Sc1oc(-c2ccco2)nc1S(=O)(=O)c1ccc(F)cc1 | inconclusive |
| Cn1c(C(=O)N2CCC(C(N)=O)CC2)cc2c(=O)n(C)c3ccccc3c21 | inactive: -1% |
| COc1ccc(S(=O)(=O)Cc2ccc(C(=O)N3CCN(c4ccccn4)CC3)o2)cc1 | inconclusive |
| Cc1nc2sc(C(c3cccc(F)c3)N3CC(C)OC(C)C3)c(O)n2n1 (configuration not stated) | inconclusive |
| Cc1ccc(S(=O)(=O)C2(C(=O)N3CCCCC3C)CC2)cc1 (configuration not stated) | inactive: 6% |
| COC(=O)c1ccc(Sc2ccc(C)cc2)c(N)c1 | inconclusive |
| COc1ccc(S(=O)(=O)NCCSCc2ccco2)cc1Cl | inactive: -2.5% |
| CCOC(=O)N1CCN(c2c(NC3CCN(Cc4ccccc4)CC3)c(=O)c2=O)CC1 | inconclusive |
| Cc1ccc(-c2ccc(SCC(=O)Nc3nonc3C)nn2)cc1 | inactive: -1.7% |
| CCc1ccc(NC(=O)CSc2nnc(Cn3c(=O)sc4ccccc43)n2C)cc1 | inconclusive |
| CCN(CC)CCCNC(=O)c1cc(-c2ccc(Cl)c(Cl)c2)on1 | inactive: 3% |
| O=C(NCc1ccco1)c1cc2sccc2n1Cc1ccccc1 | inactive: -2.5% |
| CC(=O)c1c(C)[nH]c(C(=O)NCCC2=CCCCC2)c1C | inconclusive |
| COc1ccccc1C1/C(=C(/O)c2ccccc2)C(=O)C(=O)N1CC(C)C (configuration not stated) | inactive: 10% |
| Cc1ccc(C(=O)c2cc3c(cc2N)OCCO3)cc1 | inconclusive |
| Nc1cc(C(=O)O)ccc1Nc1ccccc1 | inactive: 0% |
| CCCCOc1ccc(C2C3CN(C(=O)OCC)CC=C3C(C#N)=C(N)C2(C#N)C#N)cc1OC (configuration not stated) | inconclusive |
| CCN(CC)C(=O)CSC1=Nc2ccccc2C2=NC(Cc3c[nH]c4ccccc34)C(=O)N12 (configuration not stated) | inconclusive |
| CC(C)Oc1ccc(C(=O)N(CN2CCCC2=O)c2ccc(F)cc2)cc1 | inconclusive |
| CCCCNC(=O)CS(=O)Cc1nc(-c2cccc(Cl)c2)oc1C (configuration not stated) | inconclusive |
| Cc1cc2c(c(=O)o1)C1(C(=O)N(CC(=O)O)c3ccccc31)C(C#N)=C(N)O2 (configuration not stated) | inconclusive |
| O=c1oc2c3c4c(cc2cc1-c1nc2ccccc2[nH]1)CCCN4CCC3 | inconclusive |
| Cc1cccc(Nc2nn3c(=O)c4ccccc4nc3s2)c1 | inconclusive |
| O=C(CCCn1c(=S)[nH]c2cc3c(cc2c1=O)OCO3)N1CCN(c2ccccc2F)CC1 | inconclusive |
| CCN1CCN(CCCNC(=O)c2cc3cc4ccc(OC)cc4nc3o2)CC1 | inconclusive |

| SMILES | activation |
| --- | --- |
| CCOC(=O)N1CCN(C(=O)C(C)(C)Oc2ccc(Cl)cc2)CC1 | inconclusive |
| O=C1c2cccnc2C(=O)N1Cc1cccs1 | inactive: 0% |
| O=C(C1CC1)N1CCN=C1SCc1ccc(Cl)cc1 | inconclusive |
| CCOC(=O)c1c[nH]c2c3c(ccc2c1=O)CCCC3 | inconclusive |
| CCC(=O)Nc1ccc(NC(=O)c2ccccn2)cn1 | inconclusive |
| COc1cc(OC)cc(-c2nnc(SCC(=O)N3CCCCC3)o2)c1 | inconclusive |
| COC(=O)C1=C(NC(=O)c2cccc(C)c2)CCS1 | inactive: 4% |
| COc1ccc(NC(=O)CN(c2ccc(C)cc2)S(=O)(=O)c2c(C)nn(C)c2C)cc1OC | inconclusive |
| Cc1c(C(=O)O)nn(-c2ccccc2)c(=O)c1C#N | inactive: 3% |
| CCN(CC)S(=O)(=O)c1ccc2oc(C(=O)NC(C)C)c(C)c2c1 | inconclusive |
| Cc1nc2c([nH]1)C1(CCN(Cc3ccccc3)CC1)C(C#N)=C(N)O2 | inconclusive |
| CCOC(=O)c1[nH]c(C)c(C(=O)Nc2cccc(Cl)c2C)c1C | inconclusive |
| Cc1cc(C)n(CCc2nc3c4ccccc4nc(SCc4ccc(C#N)cc4)n3n2)n1 | inconclusive |
| C=CCNS(=O)(=O)c1ccc2nsnc2c1 | inactive: 7.5% |
| CC(=O)N1CCCc2cc(S(=O)(=O)Nc3ccc4c(c3)OCO4)ccc21 | inconclusive |
| CCOC(=O)c1[nH]c(C)c(C(=O)Nc2cc(Cl)ccc2C)c1C | inconclusive |
| Cc1ccc2nc(NC(=O)C3CCN(S(=O)(=O)c4cccs4)CC3)sc2c1 | inconclusive |
| O=C1CC(c2ccccc2)C(C(=O)Nc2ccccc2F)N1 (configuration not stated) | inconclusive |
| Cc1ccc(-c2nc(CS(=O)CC(=O)NCc3ccccn3)c(C)o2)cc1 (configuration not stated) | inconclusive |
| O=C(CSc1ccc2nnc(-c3ccccc3)n2n1)N1CCCCC1 | inactive: -3.3% |
| CCC(Sc1nc2c(c(=O)[nH]1)CCC2)C(=O)Nc1cccc(OC)c1 (configuration not stated) | inactive: -10% |
| CCc1nn(CC(=O)NCCCN(CC)Cc2ccccc2)c(=O)c2cc3sccc3n12 | inconclusive |

Already shown: entries from further up.

| SMILES | activation |
| --- | --- |
| CCOC(=O)c1c[nH]c2c3c(ccc2c1=O)CCCC3 | inconclusive |
| CCC(=O)Nc1ccc(NC(=O)c2ccccn2)cn1 | inconclusive |
| COc1cc(OC)cc(-c2nnc(SCC(=O)N3CCCCC3)o2)c1 | inconclusive |
